# Source: the supplement of paper PMC10735217
# Where a name gives a salt, the structure may show the parent alone. The list shows a part of the results. Repeats in this data set agree poorly, so a single value says little.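 Human kidney-derived cells stably carry a construct in which eight TEAD-binding elements drive luciferase, measured by luminescence in a drug-repurposing library screen. A hit is any compound whose signal exceeds the plate mean by more than five robust Z scores.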
# Test system: HEK293A TEAD-LUC reporter
# Test: TEAD-luciferase reporter activity (YAP activation), robust Z score vs plate; higher = stronger YAP/TEAD activation
# Conditions: 24 h
SMILES,TEAD-luciferase reporter activity (compound concentration: 200 nM),TEAD-luciferase reporter activity (compound concentration: 2 uM),TEAD-luciferase reporter activity (compound concentration: 10 uM)
CC12CCC3c4ccc(OC(=O)N(CCCl)CCCl)cc4CCC3C1CCC2OP(=O)([O-])[O-] (stereo unspecified) [estramustine phosphate sodium],inactive: -0.396,inactive: -1.02,inactive: -0.468
O=C(Nc1ccccc1F)N[C@H]1N=C(c2ccccc2)c2ccccc2NC1=O,inactive: -2.21,inactive: -0.993,inactive: -1.21
COc1ccc2c3c1OC1C(O)C=CC4C(C2)[N+](C)(C)CCC341 (stereo unspecified),inactive: 0.22,,inactive: 2.45
COc1ccc2c3c1OC1C(O)C=CC4C(C2)[N+](C)(C)CCC341 (stereo unspecified) [Codeine methylbromide],,inactive: 1.25,
COC(=O)C(c1ccccc1)C1CCCCN1 (stereo unspecified) [Methylphenidate hydrochloride],,inactive: -0.321,
COC(=O)C(c1ccccc1)C1CCCCN1 (stereo unspecified) [methylphenidate HCl],inactive: 0.534,inactive: -0.0206,inactive: -0.422
CC(OC(N)=O)C(C)C(C)OC(N)=O (stereo unspecified),inactive: 4.84,inactive: 2.46,inactive: -0.966
CCC(=O)C1(c2cccc(O)c2)CCN(C)CC1,inactive: -1.29,inactive: 0.395,inactive: 0.255
CCCN1CCOC(c2cccc(O)c2)C1 (stereo unspecified),inactive: 0.264,inactive: -0.293,inactive: -0.101
ClC=C(Cl)Cl,inactive: 0.696,inactive: -1.61,inactive: 0.748
CCOc1cncc(/C=C/CCNC)c1,inactive: 1.04,inactive: -1.51,inactive: -0.266
COc1cccc(S(=O)(=O)N2CCCC2C(=O)N2CCC(N3CCCC3=O)CC2)c1 (stereo unspecified),inactive: 1.38,,active: 12.8
COc1cc(C)nc(O)c1CNC(=O)c1c(C)n([C@H](C)C2CCOCC2)c2ccccc12,inactive: -0.335,inactive: 0.826,inactive: -1.32
"COc1ccc(C[C@@H](C)NCC(O)c2cc(O)cc(O)c2)cc1 (stereo partly drawn) [(R,R)-4-Methoxyfenoterol]",inactive: -0.169,inactive: 0.575,inactive: 1.76
C[N+]1(CC(=O)c2ccccc2)C2CCC1CC(OC(=O)C(O)c1ccccc1)C2 (stereo unspecified),inactive: 1.48,inactive: -0.966,inactive: 3.26
CN1CC[C@]23c4c5ccc(O)c4O[C@H]2[C@@H](O[C@@H]2O[C@H](C(=O)O)[C@@H](O)[C@H](O)[C@H]2O)C=C[C@H]3[C@H]1C5 [Morphine 6-beta-D-glucuronide hydrate],,inactive: -1.29,
CN1CC[C@]23c4c5ccc(O)c4O[C@H]2[C@@H](O[C@@H]2O[C@H](C(=O)O)[C@@H](O)[C@H](O)[C@H]2O)C=C[C@H]3[C@H]1C5 [Morphine 6-Î^2-D-glucuronide hydrate],inactive: -0.512,,inactive: 4.75
CN1c2ccccc2C(c2ccccc2F)=NCC1CNC(=O)c1ccsc1 (stereo unspecified) [tifluadom],inactive: 0.0774,inactive: 0.0112,inactive: 4.99
CCOC(=O)[C@H]1[C@@H](OC(=O)c2ccccc2)C[C@@H]2CC[C@H]1N2C,inactive: -1.92,inactive: -0.595,inactive: 0.0876
CCN1CCCCC12Cc1ccccc1CN(C(=O)Cc1ccc(O)cc1)C2 (stereo unspecified),inactive: -1.77,,inactive: 2.23

# Reformatted with tabs: entries from further up
SMILES	TEAD-luciferase reporter activity (compound concentration: 200 nM)	TEAD-luciferase reporter activity (compound concentration: 2 uM)	TEAD-luciferase reporter activity (compound concentration: 10 uM)
CC12CCC3c4ccc(OC(=O)N(CCCl)CCCl)cc4CCC3C1CCC2OP(=O)([O-])[O-] (stereo unspecified) [estramustine phosphate sodium]	inactive: -0.396	inactive: -1.02	inactive: -0.468
O=C(Nc1ccccc1F)N[C@H]1N=C(c2ccccc2)c2ccccc2NC1=O	inactive: -2.21	inactive: -0.993	inactive: -1.21
COc1ccc2c3c1OC1C(O)C=CC4C(C2)[N+](C)(C)CCC341 (stereo unspecified)	inactive: 0.22		inactive: 2.45
COc1ccc2c3c1OC1C(O)C=CC4C(C2)[N+](C)(C)CCC341 (stereo unspecified) [Codeine methylbromide]		inactive: 1.25	
COC(=O)C(c1ccccc1)C1CCCCN1 (stereo unspecified) [Methylphenidate hydrochloride]		inactive: -0.321	
COC(=O)C(c1ccccc1)C1CCCCN1 (stereo unspecified) [methylphenidate HCl]	inactive: 0.534	inactive: -0.0206	inactive: -0.422
CC(OC(N)=O)C(C)C(C)OC(N)=O (stereo unspecified)	inactive: 4.84	inactive: 2.46	inactive: -0.966
CCC(=O)C1(c2cccc(O)c2)CCN(C)CC1	inactive: -1.29	inactive: 0.395	inactive: 0.255
CCCN1CCOC(c2cccc(O)c2)C1 (stereo unspecified)	inactive: 0.264	inactive: -0.293	inactive: -0.101
ClC=C(Cl)Cl	inactive: 0.696	inactive: -1.61	inactive: 0.748
CCOc1cncc(/C=C/CCNC)c1	inactive: 1.04	inactive: -1.51	inactive: -0.266
COc1cccc(S(=O)(=O)N2CCCC2C(=O)N2CCC(N3CCCC3=O)CC2)c1 (stereo unspecified)	inactive: 1.38		active: 12.8
COc1cc(C)nc(O)c1CNC(=O)c1c(C)n([C@H](C)C2CCOCC2)c2ccccc12	inactive: -0.335	inactive: 0.826	inactive: -1.32
COc1ccc(C[C@@H](C)NCC(O)c2cc(O)cc(O)c2)cc1 (stereo partly drawn) [(R,R)-4-Methoxyfenoterol]	inactive: -0.169	inactive: 0.575	inactive: 1.76
C[N+]1(CC(=O)c2ccccc2)C2CCC1CC(OC(=O)C(O)c1ccccc1)C2 (stereo unspecified)	inactive: 1.48	inactive: -0.966	inactive: 3.26

# The list goes on:

SMILES,TEAD-luciferase reporter activity (compound concentration: 200 nM),TEAD-luciferase reporter activity (compound concentration: 2 uM),TEAD-luciferase reporter activity (compound concentration: 10 uM)
CN(C)CCO,inactive: -0.0115,inactive: 1.54,inactive: -0.306
C[C@@H]1CN2c3c(cc4c(N5C(=O)OC[C@H]5C)noc4c3F)CC3(C(=O)NC(=O)NC3=O)[C@@H]2[C@@H](C)O1 [AZD-0914-isomer],inactive: 0.0882,inactive: -0.593,inactive: -0.12
CCCN1CCC[C@@H]2Cc3nc(N)ncc3C[C@H]21 [Quinelorane hydrochloride],inactive: -0.748,inactive: -0.715,inactive: -0.617
CCOC(=O)C1(c2ccccc2)CCN(C)CC1 [Pethidine hydrochloride],inactive: -0.221,inactive: -1.51,inactive: 0.847
CC(C)Cc1ccc(C(C)C(=O)Oc2cccc(C3(O)CCCCC3CN(C)C)c2)cc1 (stereo unspecified),inactive: -0.802,inactive: -0.5,inactive: 0.0644
CC(C)C1C(=O)NC(=S)NC1=O,inactive: 2.27,inactive: -0.606,inactive: 1.94
COc1cc([C@@H]2c3cc4c(cc3[C@H](O)[C@H]3COC(=O)[C@H]23)OCO4)cc(OC)c1OC [Podofilox],inactive: 0.189,inactive: 4.79,inactive: 3.31
C[C@]12C=CC(=O)C=C1CC[C@@H]1[C@@H]2CC[C@]2(C)C(=O)CC[C@@H]12,,inactive: 3.9,
CC(C)NCC(O)c1ccc([N+](=O)[O-])cc1 (stereo unspecified) [nifenalol],inactive: 0.206,inactive: -1.38,inactive: 1.39
COc1ccc2c(c1)CN(C)CC2c1ccc(Cl)c(Cl)c1 (stereo unspecified) [diclofensine],inactive: 1.8,inactive: -1.2,inactive: 1.21
CC(=O)OCC(=O)[C@H]1CC[C@H]2[C@@H]3CC[C@H]4C[C@H](O)CCC4(C)[C@H]3C(=O)CC12C (stereo partly specified),inactive: -0.487,inactive: -0.57,inactive: -1.32
Clc1ccc(C2CC3CCCC2N3)cn1 (stereo unspecified),inactive: -1.28,inactive: 0.144,inactive: 0.963
COc1cc(OC2CCN(Cc3ccc[n+]([O-])c3C)CC2)ccc1C(=O)N1CCC(N2C(=O)OCc3ccccc32)CC1,inactive: -0.836,inactive: -0.239,inactive: -0.429
CN1CC[C@]2(C)C[C@@H](Cc3ccc(O)cc32)C1,inactive: -1.37,inactive: -1.18,inactive: -1.43
O=C(c1ccccc1)N1CCC(C(=O)O)(c2ccccc2)CC1,inactive: -0.601,,
NC(/N=N/C(N)=N/Cl)=N\Cl,inactive: -1.02,inactive: -1.62,inactive: 4.27
CCCCCCC1C(=O)O[C@H](C)[C@H](NC(=O)c2cccc(NC=O)c2O)C(=O)O[C@@H](C)[C@@H]1OC(=O)CC(C)C (stereo partly specified) [Antimycin A],inactive: 4.88,inactive: -1.33,inactive: 0.808
NC[C@H](O)c1ccccc1 [(R)-2-Amino-1-phenylethanol],inactive: -0.636,inactive: 1.51,inactive: -1.15
CCN(CC)[C@H](C)[C@@H](O)c1ccccc1,inactive: 2.36,inactive: -1.72,inactive: 1.75
N[C@@H](Cc1cc(Br)c(O)c(Br)c1)C(=O)O,inactive: -1.32,inactive: -1.26,active: 11.4

SMILES,TEAD-luciferase reporter activity (compound concentration: 200 nM),TEAD-luciferase reporter activity (compound concentration: 2 uM),TEAD-luciferase reporter activity (compound concentration: 10 uM)
CC(C)(C)c1ccc(CSc2cnn(C(C)(C)C)c(=O)c2Cl)cc1,inactive: -1.13,inactive: -0.0855,inactive: -0.172
"CCCN1C[C@H](CSC)C[C@@H]2c3cccc4[nH]cc(c34)C[C@H]21 [pergolide mesylate, Lilly]",,inactive: -0.203,
CCCN1C[C@H](CSC)C[C@@H]2c3cccc4[nH]cc(c34)C[C@H]21 [pergolide],inactive: -1.33,,active: 9.11
NC(=O)c1cccc([C@H]2C[C@H]3CC[C@@H](C2)N3CCNCC2CCCCC2)c1,inactive: 1.85,inactive: 1.04,inactive: -1.02
NC(=O)CN1CCN(Cc2nc(-c3cn(CC4CCOCC4)c4c(Cl)cccc34)no2)CC1,inactive: 0.777,inactive: -0.281,inactive: 2.67
[S]=[Hg],inactive: -0.322,,inactive: -0.16
O=C(O)C1CCCN(CCOC(c2ccccc2)c2ccccc2)C1 (stereo unspecified),inactive: -0.695,inactive: 0.0154,inactive: -0.47
C#Cc1cccc2c1c(C(=O)c1ccc(Cn3c(C)nc4cnccc43)c(F)c1)cn2C(=O)N(C)C,inactive: -1.53,inactive: 0.0284,inactive: 0.603
CC[C@]1(O)C(=O)OCc2c1cc1n(c2=O)Cc2cc3c(OC)cccc3nc2-1 [9-Methoxycamptothecin],inactive: -1.89,inactive: -3.29,inactive: -1.51
CSc1ccc(CC(C)N)cc1 (stereo unspecified),inactive: -0.28,inactive: 1.4,inactive: 0.778
CC1OC2(CCN(C)CC2)CN1C=O (stereo unspecified),inactive: -0.684,inactive: -0.578,inactive: 0.3
CCOc1ccc(Cc2nc3cc(N(C)S(=O)(=O)c4cccs4)ccc3n2CC2CCCCC2)nc1,inactive: 0.215,inactive: 0.784,inactive: -0.127
C=C(Br)CC1(C(C)C)C(=O)NC(=O)N(C)C1=O (stereo unspecified),inactive: -1.03,inactive: 0.848,inactive: 1.39
Cc1sc2c(c1C)C(c1ccc(Cl)cc1)=N[C@@H](CC(=O)Nc1ccc(O)cc1)c1nnc(C)n1-2,inactive: 2.69,active: 11.1,active: 17.3
CN1CC[C@@]2(C)c3cc(OC(=O)Nc4ccccc4)ccc3N(C)[C@@H]12 [phenserine],inactive: -0.423,inactive: 0.447,inactive: -0.149
COC1(C)CC(c2ccccc2)c2c(c3ccccc3oc2=O)O1 (stereo unspecified),inactive: -0.796,inactive: 1.65,inactive: -1.3
NC(=O)CN1CCCC1=O [piracetam],inactive: 2.05,inactive: 0.475,inactive: -1.21
C=C1C[C@@H]2[C@H](CC[C@]3(C)C(=O)CC[C@@H]23)[C@@]2(C)C=CC(=O)C=C12 [exemestane],,inactive: -1.68,
C=C1C[C@@H]2[C@H](CC[C@]3(C)C(=O)CC[C@@H]23)[C@@]2(C)C=CC(=O)C=C12,inactive: -1.33,,inactive: 0.21
